Test results as given in PubChem BioAssay AID192 (DTP/NCI, 2004).
The list is a part of this screen's results and no random one: it is rich in T/C values a quarter to a half above the control, in often repeated tests (any T/C) and in doses without a T/C. Other doses and runs of a compound stand elsewhere. T/C: endpoint of the treated group in % of that of the vehicle group. Some entries give survivors of the animals treated and no T/C: the source holds a T/C of zero for them, seemingly a mark for toxic or unscored doses. Some survivor counts are full or nearly so, which does not show that the dose was tolerated: survival well below the control is almost never listed, so the zero probably covers shortened survival too. Counts of survivors are from the toxicity check (mostly the fifth day) where no day follows; animals may have died later. Schedule codes are those of the source, taken here to give the interval after Q, in days (D) or hours (H), and the number of doses after X. Marks such as (2×) say how often a value occurs here. Some entries were tested several times; the results are listed from low to high. For survival time, this PubChem deposit counts one and a half times the control or more as active, and values a quarter to a half above the control carry no call in these data; other NCI protocols may use other cut-offs.

System: BDF1 mice, B16 melanoma ip, median survival T/C
Assay: NCI In Vivo Anticancer Drug Screen. Data for tumor model B16 Melanoma (intraperitoneal) in B6D2F1 (BDF1) mice
Settings: T/C endpoint: median survival time, schedule: Q01DX009 (ip), higher T/C = longer survival
Procedure, shortened: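 Transplantable tumor model; survival or tumor size measured; reported as T/C, treated over vehicle control.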

[1] = dose: 200.0 mg/kg/injection, vehicle: Klucel (hydroxypropylcellulose) (HPC)
[2] = dose: 200.0 mg/kg/injection, vehicle: saline with Tween-80
[3] = dose: 400.0 mg/kg/injection, vehicle: saline

`C=C1C(=O)C23[C@H](O)C1CC[C@H]2[C@]12COC3(O)[C@@H](O)[C@@H]1C(C)(C)CC[C@@H]2O` was tested, and the survivor count (dose: 12.5 mg/kg/injection, vehicle: saline with Tween-80) was 9 of 10, the survivor count (dose: 25.0 mg/kg/injection, vehicle: saline with Tween-80) was 7 of 10 and the survivor count (dose: 50.0 mg/kg/injection, vehicle: saline with Tween-80) was 2 of 10.
`Cc1ccc(C(=O)CCC(=O)O)c(C)c1` was tested, and the survivor count (dose: 400.0 mg/kg/injection, vehicle: saline with Tween-80) was 8 of 10.
For `FC(F)(F)c1ccc2c(c1)N(CCCN1CCN(CCN3CCOCC3)CC1)c1ccccc1S2`, the survivor count (dose: 4.4 mg/kg/injection, vehicle: saline) was 10 of 10, the survivor count (dose: 6.8 mg/kg/injection, vehicle: saline) was 7 of 10 and the survivor count (dose: 10.0 mg/kg/injection, vehicle: saline) was 9 of 10.
`O=C(CCN1CCCCCCC1)c1cccc([N+](=O)[O-])c1` was tested, and the survivor count [1] was 3 of 10.
For `O=c1[nH]c2ccccc2n1C1CCN(CCCC(c2ccc(F)cc2)c2ccc(F)cc2)CC1`, the survivor count [1] was 10 of 10 and the survivor count (dose: 400.0 mg/kg/injection, vehicle: Klucel (hydroxypropylcellulose) (HPC)) was 10 of 10.
`O=C(COc1ccc(Cl)cc1Cl)Nc1ccc(F)cc1` was tested, and the survivor count [2] was 10 of 10.
With `CCCCCNC(=O)Nc1cccc(Cl)c1C` the survivor count (dose: 100.0 mg/kg/injection, vehicle: saline with Tween-80) was 10 of 10 and the survivor count [2] was 8 of 10.
With `O=NN(CCCl)C(=O)NCCO` the T/C (dose: 1.56 mg/kg/injection, vehicle: water) was 129 % of control, the survivor count (dose: 3.13 mg/kg/injection, vehicle: water) was 10 of 10 and the T/C (dose: 6.25 mg/kg/injection, vehicle: water, evaluated on day 45) was 127 % of control. For the same compound, the T/C (dose: 6.25 mg/kg/injection, vehicle: water, evaluated on day 60) was 147 % of control, the survivor count (dose: 12.5 mg/kg/injection, vehicle: water) was 10 of 10 (2×) and the survivor count (dose: 25.0 mg/kg/injection, vehicle: water) was 10 of 10 (2×). The survivor count (dose: 50.0 mg/kg/injection, vehicle: water) was 8 of 10 and 10 of 10.
In the case of `COc1ccc2nc3cc(Cl)ccc3c(Nc3ccc(O)c(CN(CCCl)CCCl)c3)c2c1`, the T/C (dose: 2.0 mg/kg/injection, vehicle: saline) is reported as 137 % of control.
`Nc1cccs1` was tested, and the survivor count (dose: 100.0 mg/kg/injection, vehicle: saline) was 10 of 10, the survivor count (dose: 200.0 mg/kg/injection, vehicle: saline) was 3 of 10 and the survivor count [3] was 0 of 10.
For `CCN(C)CCN(C)CC`, the survivor count [3] was 0 of 10.
In the case of `C=C1C(=O)O[C@@H]2/C=C(/C)[C@@]3(O)C=C[C@](C)(C[C@@H](OC(=O)/C(=C\C)COC(C)=O)[C@@H]12)O3`, the survivor count (dose: 0.06 mg/kg/injection, vehicle: carboxymethylcellulose (CMC)) is reported as 8 of 10, the survivor count (dose: 0.5 mg/kg/injection, vehicle: carboxymethylcellulose (CMC)) is reported as 9 of 10 and the survivor count (dose: 1.0 mg/kg/injection, vehicle: carboxymethylcellulose (CMC)) is reported as 3 of 10. The survivor count (dose: 2.0 mg/kg/injection, vehicle: carboxymethylcellulose (CMC)) was 1 of 10, the survivor count (dose: 4.0 mg/kg/injection, vehicle: carboxymethylcellulose (CMC)) was 2 of 10 and the survivor count (dose: 8.0 mg/kg/injection, vehicle: carboxymethylcellulose (CMC)) was 3 of 10. The survivor count (dose: 27.0 mg/kg/injection, vehicle: saline with Tween-80) was 6 of 10 and 10 of 10, the survivor count (dose: 40.0 mg/kg/injection, vehicle: saline with Tween-80) was 2 of 10 and the survivor count (dose: 60.0 mg/kg/injection, vehicle: saline with Tween-80) was 0 of 10.
